According to the supplement of paper PMC5355238:
Counter-ions that a name gives are not always drawn. This is one part of the list. Most entries show no effect beyond the scatter of the controls.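 Reh, a human leukemia cell line, is read out by flow cytometry as the median γH2AX antibody signal in S-phase cells; the score counts standard deviations from the median difference of each paired plate set. Scores above 2.5 were candidate hits; scores below -2 mark compounds lowering MK1775-induced damage.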

What follows are compounds tested on Reh (assay: Z' of S-phase gammaH2AX difference (drug + MK1775 minus drug alone) (Z-score); higher = stronger synergistic S-phase DNA damage with MK1775). Conditions: MK1775 concentration 400 nM; first compound 10 µM; 4 h.

| Structure (SMILES) | Z' of S-phase gammaH2AX difference (Z-score) |
| --- | --- |
| Cc1cnc(C(=O)NCCc2ccc(S(=O)(=O)NC(=O)NC3CCCCC3)cc2)cn1 [Glipizide] + C=CCn1c(=O)c2cnc(Nc3ccc(N4CCN(C)CC4)cc3)nc2n1-c1cccc(C(C)(C)O)n1 [MK1775] | inactive: 0.0559 |
| CC(C)NC[C@H](O)COc1cccc2[nH]ccc12 [S(-)-Pindolol] + C=CCn1c(=O)c2cnc(Nc3ccc(N4CCN(C)CC4)cc3)nc2n1-c1cccc(C(C)(C)O)n1 [MK1775] | inactive: 0.0307 |
| O=C1[C@H](CC[C@H](O)c2ccc(F)cc2)[C@@H](c2ccc(O)cc2)N1c1ccc(F)cc1 [Ezetimibe (Zetia)] + C=CCn1c(=O)c2cnc(Nc3ccc(N4CCN(C)CC4)cc3)nc2n1-c1cccc(C(C)(C)O)n1 [MK1775] | inactive: -0.0776 |
| Nc1nc2[nH]cc(CCc3ccc(C(=O)N[C@@H](CCC(=O)O)C(=O)O)cc3)c2c(=O)[nH]1 [Pemetrexed] + C=CCn1c(=O)c2cnc(Nc3ccc(N4CCN(C)CC4)cc3)nc2n1-c1cccc(C(C)(C)O)n1 [MK1775] | inactive: 0.314 |
| COCCc1ccc(OCC(O)CNC(C)C)cc1 (stereo not drawn) [(?)-Metoprolol (+)-tartrate] + C=CCn1c(=O)c2cnc(Nc3ccc(N4CCN(C)CC4)cc3)nc2n1-c1cccc(C(C)(C)O)n1 [MK1775] | inactive: 1.15 |
| CC(C)Cc1ccc(C(C)C(=O)O)cc1 (stereo not drawn) [(?)-Ibuprofen] + C=CCn1c(=O)c2cnc(Nc3ccc(N4CCN(C)CC4)cc3)nc2n1-c1cccc(C(C)(C)O)n1 [MK1775] | inactive: 0.216 |
| COC(=O)C(N)Cc1ccc(Cl)cc1 (racemic) [DL-p-Chlorophenylalanine methyl ester hydrochloride] + C=CCn1c(=O)c2cnc(Nc3ccc(N4CCN(C)CC4)cc3)nc2n1-c1cccc(C(C)(C)O)n1 [MK1775] | inactive: -0.481 |
| O=c1c(O)c(-c2ccc(O)c(O)c2)oc2cc(O)cc(O)c12 [Quercetin dihydrate] + C=CCn1c(=O)c2cnc(Nc3ccc(N4CCN(C)CC4)cc3)nc2n1-c1cccc(C(C)(C)O)n1 [MK1775] | inactive: -0.611 |
| O=c1c(O)c(-c2ccc(O)c(O)c2)oc2cc(O)cc(O)c12 [Quercetin (Sophoretin)] + C=CCn1c(=O)c2cnc(Nc3ccc(N4CCN(C)CC4)cc3)nc2n1-c1cccc(C(C)(C)O)n1 [MK1775] | inactive: -0.357 |
| O=C(O)C1(C(=O)O)CCC1.[NH2-].[NH2-].[Pt+2] [Carboplatin] + C=CCn1c(=O)c2cnc(Nc3ccc(N4CCN(C)CC4)cc3)nc2n1-c1cccc(C(C)(C)O)n1 [MK1775] | inactive: -0.0237 |
| N[C@H](C(=O)O)[C@H]1C[C@@H]1C(=O)O [(2S,1'S,2'S)-2-(carboxycyclopropyl)glycine] + C=CCn1c(=O)c2cnc(Nc3ccc(N4CCN(C)CC4)cc3)nc2n1-c1cccc(C(C)(C)O)n1 [MK1775] | inactive: -0.304 |
| CC(C)(C)NCC(O)c1cc(O)cc(O)c1 (stereo not drawn) [Terbutaline hemisulfate] + C=CCn1c(=O)c2cnc(Nc3ccc(N4CCN(C)CC4)cc3)nc2n1-c1cccc(C(C)(C)O)n1 [MK1775] | inactive: -0.136 |
| CCOC(=O)[N-]c1c[n+](N2CCOCC2)no1 [Molsidomine] + C=CCn1c(=O)c2cnc(Nc3ccc(N4CCN(C)CC4)cc3)nc2n1-c1cccc(C(C)(C)O)n1 [MK1775] | inactive: 1.41 |
| CC[N+](CC)(CC)CCOc1cccc(OCC[N+](CC)(CC)CC)c1OCC[N+](CC)(CC)CC [Gallamine triethiodide] + C=CCn1c(=O)c2cnc(Nc3ccc(N4CCN(C)CC4)cc3)nc2n1-c1cccc(C(C)(C)O)n1 [MK1775] | inactive: -0.211 |
| CCN(CCCOc1ccc2c(Nc3cc(CC(=O)Nc4cccc(F)c4)[nH]n3)ncnc2c1)CCOP(=O)(O)O [Barasertib (AZD1152-HQPA)] + C=CCn1c(=O)c2cnc(Nc3ccc(N4CCN(C)CC4)cc3)nc2n1-c1cccc(C(C)(C)O)n1 [MK1775] | inactive: 0.22 |
| O=c1[nH]nc(Sc2ncc([N+](=O)[O-])s2)n1-c1ccc2c(c1)OCCO2 + C=CCn1c(=O)c2cnc(Nc3ccc(N4CCN(C)CC4)cc3)nc2n1-c1cccc(C(C)(C)O)n1 [MK1775] | inactive: 1.23 |
| CC/C(=C(\c1ccccc1)c1ccc(OCCN(C)C)cc1)c1ccccc1 [Tamoxifen citrate] + C=CCn1c(=O)c2cnc(Nc3ccc(N4CCN(C)CC4)cc3)nc2n1-c1cccc(C(C)(C)O)n1 [MK1775] | inactive: -0.606 |
| CC/C(=C(\c1ccccc1)c1ccc(OCCN(C)C)cc1)c1ccccc1 [Tamoxifen Citrate (Nolvadex)] + C=CCn1c(=O)c2cnc(Nc3ccc(N4CCN(C)CC4)cc3)nc2n1-c1cccc(C(C)(C)O)n1 [MK1775] | inactive: 0.191 |
| O=C(O)c1cccnc1C(=O)O [Quinolinic acid] + C=CCn1c(=O)c2cnc(Nc3ccc(N4CCN(C)CC4)cc3)nc2n1-c1cccc(C(C)(C)O)n1 [MK1775] | inactive: -0.34 |
| CCN1CCC[C@H]1CNC(=O)c1c(O)c(Cl)cc(Cl)c1OC [S(+)-Raclopride L-tartrate] + C=CCn1c(=O)c2cnc(Nc3ccc(N4CCN(C)CC4)cc3)nc2n1-c1cccc(C(C)(C)O)n1 [MK1775] | inactive: -0.244 |
| CN1CCC[C@@H]1CCO[C@](C)(c1ccccc1)c1ccc(Cl)cc1 [Clemastine fumarate] + C=CCn1c(=O)c2cnc(Nc3ccc(N4CCN(C)CC4)cc3)nc2n1-c1cccc(C(C)(C)O)n1 [MK1775] | inactive: 0.571 |
| CN1CCN(c2nc(C3=C(c4c[nH]c5ccccc45)C(=O)NC3=O)c3ccccc3n2)CC1 [Sotrastaurin (AEB071)] + C=CCn1c(=O)c2cnc(Nc3ccc(N4CCN(C)CC4)cc3)nc2n1-c1cccc(C(C)(C)O)n1 [MK1775] | inactive: -0.498 |
| COc1cc2ncnc(Nc3ccc(F)c(Cl)c3)c2cc1OCCCN1CCOCC1 [Gefitinib (Iressa)] + C=CCn1c(=O)c2cnc(Nc3ccc(N4CCN(C)CC4)cc3)nc2n1-c1cccc(C(C)(C)O)n1 [MK1775] | inactive: 0.16 |

Fetched one by one from the entries so far:

| Structure (SMILES) | Z' of S-phase gammaH2AX difference (Z-score) |
| --- | --- |
| O=C1[C@H](CC[C@H](O)c2ccc(F)cc2)[C@@H](c2ccc(O)cc2)N1c1ccc(F)cc1 [Ezetimibe (Zetia)] + C=CCn1c(=O)c2cnc(Nc3ccc(N4CCN(C)CC4)cc3)nc2n1-c1cccc(C(C)(C)O)n1 [MK1775] | inactive: -0.0776 |
| CC/C(=C(\c1ccccc1)c1ccc(OCCN(C)C)cc1)c1ccccc1 [Tamoxifen Citrate (Nolvadex)] + C=CCn1c(=O)c2cnc(Nc3ccc(N4CCN(C)CC4)cc3)nc2n1-c1cccc(C(C)(C)O)n1 [MK1775] | inactive: 0.191 |
